{
  "sequences": {"note": "Chains of the proteins cited; added tags and fusions are not shown. Residues count along the entry.", "UniProt P61073": "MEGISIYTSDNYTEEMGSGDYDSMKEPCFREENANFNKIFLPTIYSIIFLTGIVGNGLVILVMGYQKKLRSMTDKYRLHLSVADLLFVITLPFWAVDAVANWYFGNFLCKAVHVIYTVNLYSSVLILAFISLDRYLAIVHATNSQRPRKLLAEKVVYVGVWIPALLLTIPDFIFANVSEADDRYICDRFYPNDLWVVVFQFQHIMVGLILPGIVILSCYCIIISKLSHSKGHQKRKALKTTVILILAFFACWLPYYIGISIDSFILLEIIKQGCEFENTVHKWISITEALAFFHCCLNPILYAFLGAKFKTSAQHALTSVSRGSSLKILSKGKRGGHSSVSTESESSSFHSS", "UniProt P78423, residues 25-336": "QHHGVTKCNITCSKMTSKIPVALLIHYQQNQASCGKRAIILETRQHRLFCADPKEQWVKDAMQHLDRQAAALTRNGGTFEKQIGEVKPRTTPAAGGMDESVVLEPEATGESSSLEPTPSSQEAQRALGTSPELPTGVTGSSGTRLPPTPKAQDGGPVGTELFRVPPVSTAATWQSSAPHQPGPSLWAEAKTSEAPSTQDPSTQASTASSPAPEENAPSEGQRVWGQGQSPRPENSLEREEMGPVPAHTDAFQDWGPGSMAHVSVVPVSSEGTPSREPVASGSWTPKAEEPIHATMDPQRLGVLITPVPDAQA"},
  "source": "patent US6699677",
  "target": "CXCR4 on transfected mouse myeloma NSO cells (UniProt P61073)",
  "experiment": "adhesion of receptor-expressing NSO cells to immobilized stalkokine; one 'yes' printed for two ligands",
  "note": "Results are given in words; binding and its absence hold for the method and conditions named. Some binding calls cover weakened binding; strength is not graded here.",
  "data": [
    {"substance": "FK (fractalkine), stalkokine form (from UniProt P78423 25-336) (ligand)", "values": [
      {"measurement": "binding", "result": "binds"}
    ]}
  ]
}
